For 1 substance, binding results are on record in paper PMC4510537.

Sequences of proteins named here, by UniProt entry; tags and fusion partners are left off. A change or cut given only in a name is not applied to a line headed by its entry. Residues count along the entry.
UniProt Q04900: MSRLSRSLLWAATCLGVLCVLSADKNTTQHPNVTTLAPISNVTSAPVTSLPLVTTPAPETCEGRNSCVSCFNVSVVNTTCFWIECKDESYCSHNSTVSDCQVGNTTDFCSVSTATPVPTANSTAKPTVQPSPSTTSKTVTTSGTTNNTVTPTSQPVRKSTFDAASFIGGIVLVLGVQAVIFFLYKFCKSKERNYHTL
HA4-CD164 R192*: residues 24-191 of Q04900

No constants are given. Whether binding was seen depends on the method and setting. Binding seen in cells or lysates may run through a third protein. Some results given as binding are weak or reduced against the parent protein; the word gives no strength.

The assay deals with HA4-CD164 R192* (human) (UniProt Q04900). The experiment in a line: co-IP; HEK-293 cells co-transfected with distinctly tagged CD164 and CD164 R192*, lysed 2 days later in immunoprecipitation buffer; precipitated with anti-HA (12CA5) and protein G agarose; reducing SDS-PAGE, immunoblot with anti-FLAG (M2) or anti-HA.

Consider “FLAG4-CD164 (from UniProt Q04900 24-197)”, for which the binding entry is “binds”.
